## Percent effect of library compounds

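Assay of Toxoplasma gondii numbers, read through their beta-galactosidase reporter with a colour substrate. Compounds at 10 µM. Higher reads as fewer parasites (inferred from which compounds were picked for retests). About 67,000 compounds were tested under these conditions; 0.38% (about 260) showed 50% or more at least once.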

The filed quantity is “Percent Effect” (%). How 0% and 100% were set is not recorded. Most values in the screen are low, and negative values occur. Compounds were drawn at random from those tested, without regard to their results.

structure,percent effect
Cc1ccc(CN2CCOC3(COCCN(S(C)(=O)=O)C3)C2)o1.O=C(O)C(F)(F)F (centres unmarked),2.702
CN(CC(N)=O)Cc1csc(-c2ccc(F)cc2)n1,-0.134
O=S(=O)(Cc1ccccc1)c1nnc(N2CCCC2)s1,-16.19
O=C(Cn1cccn1)N1CCC(Oc2cnccn2)CC1,19.69
Cc1ncccc1O[C@H]1CCN(C(=O)c2cccs2)CC[C@@H]1O,5.061
Cn1cc(S(=O)(=O)NC(=O)C2(c3cccc(Cl)c3)CC2)cn1,12.7
CN1C(=O)CC2(CCN(S(=O)(=O)c3cccs3)CC2)c2ccccc21,0.2697
[H][C@@]12CS(=O)(=O)C[C@]1([H])N(C(=O)C1CC1)CCN2Cc1[nH]cnc1C,0.3414
c1ccc2nc(N3CCCC3)c(NCc3nnc4n3CCC4)nc2c1,-2.021
Cn1ccnc1CN1CCCN(Cc2noc(C3CC3)n2)CC1,0.1893
CCOC(=O)C1CCN(C(=O)c2cc(F)ccc2-n2cnnn2)CC1,-19.03
Cc1nc(C)n(CC2CCCCN2CCCN2CCCC2=O)n1 (centres unmarked),1.006
CC(C)c1nccn1C(C)C(=O)N1CCN(S(C)(=O)=O)CC1 (centres unmarked),15
Cc1cc(F)ccc1NC(=O)Cn1cc(C(=O)O)ccc1=O,-5.804
Cc1cc2n(n1)[C@@H](C(F)(F)F)C[C@@H](C1CCN(C(=O)C3CC3)CC1)N2,-22.93
COc1ccc(CC(=O)N2CCC(Nc3ccc(C)nn3)CC2)cc1,0.5236
COCCNC(=O)N1CCN(C(C)C(=O)NC(C)C)CC1 (centres unmarked),-5.47
CCC(CC)NC(=O)c1cccnc1-n1cccn1,-15.38
[H][C@]12CCC(=O)N(c3ccccc3)[C@@]1([H])CCN2C(=O)c1cc(C)on1,-21.96
Cn1cc(C(=O)NCC2CCN(C(=O)NC3CC3)CC2)cn1,7.612
Cc1nn(CC(=O)N2CCN(c3cnccn3)CC2)c(C)c1Cl,1.235
CN(Cc1ccc2c(c1)OCO2)Cc1nc(-c2ccco2)no1,6.972
CC(=O)N(C)C1CCN(C(=O)c2cccc3c2ccn3C)CC1,-11.05
COc1cc(CN(CCCN(C)C)Cc2ccccn2)cc2c1OCO2.O=C(O)CC(O)(CC(=O)O)C(=O)O,19.56
CNC(=O)CCNC(=O)CCc1c(C)nc2cc(O)nn2c1C,18.84
CS(=O)(=O)Nc1cccc(CNC(=O)CCc2ccsc2)c1,0.7917
Cc1cc(C)n(CC2CN(CC3CCCC3)CCO2)n1 (centres unmarked),-2.525
O=C(C1CC1)N1CCC(c2nc(O)c3c(n2)CN(C2CCCC2)CC3)C1 (centres unmarked),14.89
CC(=O)NC1CCN(C(=O)c2cnc(COc3ccccc3)nc2O)C1 (centres unmarked),-3.737
Fc1ccc(CCC2CCCN(Cc3c[nH]cn3)C2)c(F)c1 (centres unmarked),-5.022
Cn1cc(-c2csc(N3CCN(C(=O)OC(C)(C)C)CC3)n2)cn1,-5.234
CC(C)CNC(=O)c1ccc(NC(=O)NC(C)(C)CO)cc1Cl,4.877
Cc1nc(C)n(CC2CN(Cc3cscn3)CCO2)n1 (centres unmarked),-0.9357
Cc1ncc(CNC2CC(=O)N(CCc3ccc(F)cc3)C2)n1C (centres unmarked),-47.91
Cc1ccc(C(CNC(=O)c2cc(CC(C)C)nn2C)N(C)C)cc1 (centres unmarked),-4.566
COCCN1C(=O)CCC12CCN(C(=O)NC(C)C)CC2,1.162
CCCc1noc(CNc2ccc(C(=O)N3CCCC3)cc2C)n1,8.621
O=C(O)C(F)(F)F.O=C(O)C(F)(F)F.[H][C@@]12CCCO[C@]1([H])[C@H](N1CCN(C)CC1)CN2C(=O)Cc1ccsc1,-0.9239
O=C(c1ccc(Cl)s1)N1CCCn2nc(CN3CC[C@H](F)C3)cc2C1,-19.15
N#CCCN(Cc1ccco1)C(=O)CCCNC(=O)c1ccccc1,-4.838
CC(NC(=O)Cn1ccc(=O)n(C)c1=O)c1cc(F)ccc1F (centres unmarked),6.043
CCSc1cncc(NCc2ccc(N3CCNC(=O)C3)cc2)n1,-5.049
CCc1nc(Cn2c(=O)c3c(C(F)(F)F)cc(C)nc3n2C)no1,3.965
Cc1nc(CN(C)C2CCN(Cc3sc(C)nc3C)C2)no1 (centres unmarked),-4.331
Cc1noc(C)c1CNCc1nn(-c2ccccc2)c2c1CCC2,3.236
Cc1n[nH]c(C)c1CCNC(=O)Nc1ccc2c(c1)COC2,-24.27
Cc1noc(C)c1-c1nc(C2CCCN(C(=O)CCN)C2)ccc1CO (centres unmarked),-40.89
[H][C@@]12CN(S(=O)(=O)c3ccc(C#N)cc3)C[C@]1([H])OCCN2C(C)C,-14.45
NC(=O)CN1CCC(c2noc3cc(F)ccc23)CC1,12.7
CCCS(=O)(=O)N1CCC(Oc2ccc(C#N)cc2)CC1,11.86
CN1CCC(N(C)C(=O)CCc2ccc(F)c(F)c2)C1=O (centres unmarked),15.69
COc1ccc2cc(C3CN(C(=O)CN4CCCC4)CCO3)ccc2c1 (centres unmarked),-2.357
CCCc1ccc(CN2CCC3(CC2)CNC(=O)C3)o1,14.71
Cc1ccc(N2CC[C@H](OCC3CC3)[C@@H]2Cc2ccncc2)nn1,-39.89
O=c1ncn(-c2ccc(F)cc2)c2ncccc12,-27.11
Cc1ccc(CC(=O)N2CCOCC2c2c(C)n[nH]c2C)cc1 (centres unmarked),6.464
O=C(NS(=O)(=O)c1cc(Cl)ccc1Cl)c1cccc2c1OCCO2,4.211
CN(C)c1ccc(C(=O)NCc2cccnc2-n2cncn2)cc1F,-9.191

4 of the entries, repeated:

structure	percent effect
Cc1noc(C)c1-c1nc(C2CCCN(C(=O)CCN)C2)ccc1CO (centres unmarked)	-40.89
Cc1cc(C)n(CC2CN(CC3CCCC3)CCO2)n1 (centres unmarked)	-2.525
[H][C@@]12CN(S(=O)(=O)c3ccc(C#N)cc3)C[C@]1([H])OCCN2C(C)C	-14.45
CN(Cc1ccc2c(c1)OCO2)Cc1nc(-c2ccco2)no1	6.972

From ChEMBL document CHEMBL3988442, “University of Dundee, Small-Polar-MMV Screening Library” (2021).